No constants are given. Whether binding was seen depends on the method and setting. In cells and extracts the contact can be indirect. Some entries that bind do so weakly or less than the wild type. For some assays here: Where a sequence is shown, tags or fusion partners need not be part of it.
Columns and labels:
[1] = target: T1, ESM1 overexpressed in ovarian cancer cells (Flag-tagged) (human) (UniProt Q9NQ30); experiment: co-IP; lysates of ovarian cancer cell lines (OV90, CAOV3, SKOV3) in IP lysis buffer, antibody overnight at 4 °C, protein A/G beads, Western blot; with or without ESM1 overexpression or knockdown; treatments: ginkgolic acid, simvastatin, Shikonin, UBA2 shRNA
T1 sequence: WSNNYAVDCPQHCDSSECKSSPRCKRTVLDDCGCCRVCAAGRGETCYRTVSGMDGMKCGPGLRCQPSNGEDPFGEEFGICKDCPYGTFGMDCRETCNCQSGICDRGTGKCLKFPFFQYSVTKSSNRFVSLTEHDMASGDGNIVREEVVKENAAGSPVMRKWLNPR

[2] = target: T2, Endothelial cell specific molecule 1 (ESM1), endogenous (human (endogenous in OV90 and CAOV3)) (UniProt Q9NQ30); experiment: as above
T2 sequence: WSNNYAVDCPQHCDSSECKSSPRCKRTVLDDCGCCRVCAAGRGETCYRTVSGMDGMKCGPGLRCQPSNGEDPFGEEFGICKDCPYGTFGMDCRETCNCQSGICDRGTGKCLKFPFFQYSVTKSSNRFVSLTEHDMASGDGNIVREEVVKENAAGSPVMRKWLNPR

B1: Ubiquitin-like modifier-activating enzyme 2 (UBA2), endogenous (enzyme, UniProt Q9UBT2 1-640)
chain: MALSRGLPRELAEAVAGGRVLVVGAGGIGCELLKNLVLTGFSHIDLIDLDTIDVSNLNRQFLFQKKHVGRSKAQVAKESVLQFYPKANIVAYHDSIMNPDYNVEFFRQFILVMNALDNRAARNHVNRMCLAADVPLIESGTAGYLGQVTTIKKGVTECYECHPKPTQRTFPGCTIRNTPSEPIHCIVWAKYLFNQLFGEEDADQEVSPDRADPEAAWEPTEAEARARASNEDGDIKRISTKEWAKSTGYDPVKLFTKLFKDDIRYLLTMDKLWRKRKPPVPLDWAEVQSQGEETNASDQQNEPQLGLKDQQVLDVKSYARLFSKSIETLRVHLAEKGDGAELIWDKDDPSAMDFVTSAANLRMHIFSMNMKSRFDIKSMAGNIIPAIATTNAVIAGLIVLEGLKILSGKIDQCRTIFLNKQPNPRKKLLVPCALDPPNPNCYVCASKPEVTVRLNVHKVTVLTLQDKIVKEKFAMVAPDVQIEDGKGTILISSEEGETEANNHKKLSEFGIRNGSRLQADDFLQDYTLLINILHSEDLGKDVEFEVVGDAPEKVGPKQAEDAAKSITNGSDDGAQPSTSTAQEQDDVLIVDSDEEDSSNNADVSEEERSRKRKLDEKENLSAKRSRIEQKEELDDVIALD
binding [1]: binds | binding [2]: binds

From article PMC11077861
